In publication PMC7324386:

T1: PUX5-BioID2-HA (Arabidopsis thaliana) (UniProt Q7Y175)
T1 sequence: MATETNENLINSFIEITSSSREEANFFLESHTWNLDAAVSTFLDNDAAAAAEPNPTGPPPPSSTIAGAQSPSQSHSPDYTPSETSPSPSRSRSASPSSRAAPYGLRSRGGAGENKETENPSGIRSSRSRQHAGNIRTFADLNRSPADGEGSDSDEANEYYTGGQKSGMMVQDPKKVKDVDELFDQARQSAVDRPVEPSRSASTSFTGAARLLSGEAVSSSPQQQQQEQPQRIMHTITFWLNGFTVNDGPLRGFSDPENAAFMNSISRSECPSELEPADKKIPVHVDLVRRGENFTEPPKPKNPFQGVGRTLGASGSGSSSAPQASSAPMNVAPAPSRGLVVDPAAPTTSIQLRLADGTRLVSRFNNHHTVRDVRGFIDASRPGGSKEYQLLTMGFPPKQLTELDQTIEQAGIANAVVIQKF

T2: HA-BioID2-SUN1 (Arabidopsis thaliana) (UniProt Q9FF75)
T2 sequence: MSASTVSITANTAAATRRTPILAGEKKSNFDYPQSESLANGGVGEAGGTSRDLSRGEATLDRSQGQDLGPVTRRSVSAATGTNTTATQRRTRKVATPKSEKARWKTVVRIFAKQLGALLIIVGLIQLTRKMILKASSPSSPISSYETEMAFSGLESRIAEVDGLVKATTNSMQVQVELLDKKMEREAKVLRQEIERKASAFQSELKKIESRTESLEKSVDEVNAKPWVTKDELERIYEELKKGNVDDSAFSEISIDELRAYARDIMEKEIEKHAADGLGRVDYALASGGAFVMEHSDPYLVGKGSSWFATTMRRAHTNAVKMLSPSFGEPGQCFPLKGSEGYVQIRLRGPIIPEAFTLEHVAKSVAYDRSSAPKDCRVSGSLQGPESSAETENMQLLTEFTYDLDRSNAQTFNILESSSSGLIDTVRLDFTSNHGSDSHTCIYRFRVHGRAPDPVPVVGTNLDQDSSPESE

T3: HA-BioID2-WIT1 (Arabidopsis thaliana) (UniProt Q8L7E5)
T3 sequence: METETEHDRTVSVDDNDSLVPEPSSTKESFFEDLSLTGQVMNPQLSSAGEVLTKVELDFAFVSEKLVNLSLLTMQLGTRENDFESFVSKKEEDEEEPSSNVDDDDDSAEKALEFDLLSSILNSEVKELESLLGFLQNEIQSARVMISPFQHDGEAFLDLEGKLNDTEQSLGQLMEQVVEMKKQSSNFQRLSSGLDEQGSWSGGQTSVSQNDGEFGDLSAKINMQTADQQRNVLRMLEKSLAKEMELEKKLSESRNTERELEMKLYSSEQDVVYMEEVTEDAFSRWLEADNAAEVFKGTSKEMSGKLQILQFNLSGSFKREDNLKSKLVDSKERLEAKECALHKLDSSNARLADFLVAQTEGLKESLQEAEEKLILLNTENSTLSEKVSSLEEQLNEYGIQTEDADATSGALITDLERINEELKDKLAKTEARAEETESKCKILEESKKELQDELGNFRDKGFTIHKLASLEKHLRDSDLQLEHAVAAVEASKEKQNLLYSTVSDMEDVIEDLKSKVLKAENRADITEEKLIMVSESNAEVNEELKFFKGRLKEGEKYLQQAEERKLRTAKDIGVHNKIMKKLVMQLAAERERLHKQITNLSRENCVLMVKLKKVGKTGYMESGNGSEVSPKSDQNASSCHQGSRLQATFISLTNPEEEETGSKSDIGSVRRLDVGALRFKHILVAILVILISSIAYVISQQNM

B1: NPL4A (protein, UniProt O82264 1-413)
chain: MMMLRIRSRDGLERVTAEGAHITVSQLKTLIADQLQIPLHKQTLSTNRDLLLAKTPADLLAFTDLTDPNLPLSSLNLGHGSMLYLAYDGERSIPGAPPVTPAGSFGRKMTVDDLIARQMRVTRQETSHCDSVSFDRDAANAFQHYVNESLAFAVKRGGFMYGTVTEEGQVEVDFIYEPPQQGTEANLILMRDADEEKRVDAIAMGLGMRRVGFIFNQTVVQDKTEYTLSNAEVLQAAELHAESELKEWVTAVVKLEVNEDGGADVHFEAFQMSDMCIRLFKEEWFETEIMPDDDPKLSKMKKEVVVGVKDLKEVDNDFFLVLVRILDHQGPLSSTFPIENRSSRATMRALKTHLDRAKSLPLVKKMSDFHLLLFVAQFLDVSSDVPALAECVRLQSPVPEGYALLIESMANTC
B2: WIP1 (protein, UniProt Q8GXA4 1-489)
chain: MDLESESSALESVDDNVLIQQSASNVCDDGRSLDNGSCSDESVKLLSTSNSVELGKPMSFDSPGDGGGAYSPVLKGQGLRKWRRIRRDLVKDTSANMENSKALKRGLSGVAHSHGKQMQFQSPEVEQESQGSVGSVNMLKSSGDGFDILGSSGYDSRFVAGVGFSAGMDLEIDDDRSSKSSTVARAPKVIRYEKPMISSGQGGNIRVENSKKHRGESVDFEKENSYSSLESDSRKQSGRMMDYNGENGETSMRKDDAGGEGGESINTDNRYSDEMDPLTEAINGFLALQDALEKEVQQFQEIGNEPMPQHHEQVSEANSPHPEIVTLVNNVEQLENMLEETRSMLEVKESHIRDLESTTNQSKHSWGGTEIVVEDIFRQKIEAEIEYLIYSRSIDNLNSQMKLIDEQESLAEEQTHETLNKLGRVQTKAANFTNRAQDLQNDCIEITGTIKKRACKITSYVLIQLVLLSTVVLLLLSQLLPEPDTVVPT
B3: WIP3 (protein, UniProt Q94AV5 1-459)
chain: MNESVPDSVEDNGNSVPANGLLVLPDNDHEEGGVGSPQRSNSVESPGGSVHSTRKGFGLKKWRRIKRDGPVRDEAAPVDDGSKLLKRGLAGLVNPPSKHVEFSSVEARQSSEGSVGSVNMVHHPGVANGFSPDIGCMFAVGQAFEKSEEHSGNTIGGKNVVGGKVVSGSQEKLWSDTIKRASEERGDIEKEKPCSSLDSDLRSSDFVFSTGSVSVGNHGEKDERLTMNYIGGFSNEGQVKEEVQTYSRSENGNKEDDGESKKNNNHWADKDALADSIRSFAVLQEVLWKEVQSFQELGKESVLLHSNTDELSSDQPSHQNCKEDNSTSSGSKALILKEKVKLLEHKLEEARAALEAKEARIQELENSKIESELECIFQRKIETEIEHLMLTRSLSSLQVLQETKKLHSLKEDPVSNRGNILGKTCKLGFYILTQLILLVSILRFLVLQFSPASRLVIPT
B4: RanGAP1 (protein, UniProt Q9LE82 1-535)
chain: MDHSAKTTQNRVLSVKMWPPSKSTRLMLVERMTKNITTPSIFSRKYGLLSVEEAEQDAKRIEDLAFATANKHFQNEPDGDGTSAVHVYAKESSKLMLDVIKRGPQEESEVEVSKDGDVFFDISGGSRAFIEEEEARDLLRPLADPRNSYTKIRFSNRSFGSEAAKFAASVLSSIKDQLTEVDLSDFVAGRPEAEALEVMNMFSSALEGSKLRYLNLSDNALGEKGIRAFASLINSQHDLEELYLMNDGISEDAARAVRELLPSTDKIRVLQFHNNMTGDEGATAIAEIVRECPSLEDFRCSSTRIGSEGGVALAEALEHCSHLKKLDLRDNMFGVEGGIALAKTLSVLTHLTEIYMSYLNLEDEGTEALSEALLKSAPSLEVLELAGNDITVKSTGNLAACIASKQSLAKLNLSENELKDEGTILIAKAVEGHDQLVEVDLSTNMIRRAGARALAQTVVKKNTFKLLNINGNFISEEGIDEVNDMFKDCLDKLVPLDDNDPEGEDFEDEDEEEEGEDGNELESKLGSLKIKQGEE
B5: RanGAP2 (protein, UniProt Q9M651 1-545)
chain: MADILDSRPHAFSIKLWPPSLPTRKALIERITNNFSSKTIFTEKYGSLTKDQATENAKRIEDIAFSTANQQFEREPDGDGGSAVQLYAKECSKLILEVLKKGPVAKVAARELISEDSVSPRETFFDISKGKRAFIEAEEAEELLKPLKEPGNAYTKICFSNRSFGLGAARVAEPILASLKDQLKEVDLSDFVAGRPELEALEVMNIFSDALQGSILSSLNLSDNALGEKGVRAFGALLKSLSSLEELYLMNDGISKEAAQAVSELIPSTENLRVLHFHNNMTGDEGALAIAEVVKRSPLLENFRCSSTRVGSKGGIALSEALEHCTHMEKLDLRDNMFGTEAGVSLSKTLSSFKHMTELYLSYLNLEDEGAIAIVNALKESASPIEVLEMAGNDITVEAASAIAACVAAKQDLNKLNLSENELKDEGCVQIANCIEEGHSKLQYIDMSTNYIRRAGARALAHVVVKKEAFKLLNIDGNIISEEGIEELKEIFKKSPELLGALDENDPDGEEDDDDEEDEEDEENEGNGNGELESKLKNLEVNQED
B6: CRWN2 (protein, UniProt Q9SAF6 1-1128)
chain: MTPRSETHKIGGVTNPRNADRKGKAVAFSDDLVIPTLPPPPIGTLTGQGVSRGHTDDMDMGDWRRFREVGLLNEASMEKKDQEALLEKISTLEKELYGYQHNMGLLLMENKELVSKHEQLNQAFQEAQEILKREQSSHLYALTTVEQREENLRKALGLEKQCVQELEKALREIQEENSKIRLSSEAKLVEANALVASVNGRSSDVENKIYSAESKLAEATRKSSELKLRLKEVETRESVLQQERLSFTKERESYEGTFQKQREYLNEWEKKLQGKEESITEQKRNLNQREEKVNEIEKKLKLKEKELEEWNRKVDLSMSKSKETEEDITKRLEELTTKEKEAHTLQITLLAKENELRAFEEKLIAREGTEIQKLIDDQKEVLGSKMLEFELECEEIRKSLDKELQRKIEELERQKVEIDHSEEKLEKRNQAMNKKFDRVNEKEMDLEAKLKTIKEREKIIQAEEKRLSLEKQQLLSDKESLEDLQQEIEKIRAEMTKKEEMIEEECKSLEIKKEEREEYLRLQSELKSQIEKSRVHEEFLSKEVENLKQEKERFEKEWEILDEKQAVYNKERIRISEEKEKFERFQLLEGERLKKEESALRVQIMQELDDIRLQRESFEANMEHERSALQEKVKLEQSKVIDDLEMMRRNLEIELQERKEQDEKDLLDRMAQFEDKRMAELSDINHQKQALNREMEEMMSKRSALQKESEEIAKHKDKLKEQQVEMHNDISELSTLSINLKKRREVFGRERSRFLAFVQKLKDCGSCGQLVNDFVLSDLQLPSNDEVAILPPIGVLNDLPGSSNASDSCNIKKSLDGDASGSGGSRRPSMSILQKCTSIIFSPSKRVEHGIDTGKPEQRLSSSVAVGMETKGEKPLPVDLRLRPSSSSIPEEDEEYTDSRVQETSEGSQLSEFQSSRRGRGRPRKAKPALNPTSSVKHASLEESSKDELSGHVSVTSKKTTGGGGRKRQHIDDTATGGKRRRQQTVAVLPQTPGQRHYNLRRKKTVDQVPADVEDNAAAGEDDADIAASAPSKDTVEETVVETLRARRIETNADVVSAENNGDVPVANVEPTVNEDTNEDGDEEEDEAQDDDNEENQDDDDDDDGDDDGSPRPGEGSIRKKLWTFLTT
B7: KAKU4 (protein, UniProt Q949W6 1-485)
chain: MDSVSGYAAGAGQPRVGGKIVRPRRTAVVRTPCERPVQRSRDPPQQNPSWISRLVYKPASVIASGAGKFISSVVFSDSSSSSEEDEDSSSDIDGDEDVEKNNPDFTEEDLLSAQQPSIQRLSSKRVIEQLLLQETFAREEGDRLIDIIKARVVDHPSVPSAIETSHDDYGLTSDVNVGEMSNTAVMEARKWLEEKKSGSSSKYKATEDGAGSPVDVAKSYMRARLPWGSPAANNLDFRSPSSARVQGTPLPYSAGNFSSSKLKRKSGSNQSWNIQDEIRKVRAKATEEMLKSPSSVASLEPKYSPYVLATDMLKGNASSLNADGAVRNEQSRALPNSAIPTSEHNQTTEANQAVKETGVLHTRSRGVGLEETFISTQGVKPSEDTNTAPQSGTAVDDFNDQDGDFIQPTSTIGNTTNAVLALGATLDPTGNSCIPKDVFETSKEADEIGASRHTSNGFPSSSPSGYGRSTKTHTTRRNQGFSAYS

Experiments:
Assay in all cases: proximity labelling; BioID2-tagged bait in 10-day-old transgenic Arabidopsis seedlings, 50 µM biotin for 16 h at room temperature, streptavidin-coated beads, label-free quantitative MS, ratiometric analysis against controls; the SUN1 bait also with MG132 treatment
[1] = target: T1, PUX5-BioID2-HA (Arabidopsis thaliana)
[2] = target: T2, HA-BioID2-SUN1 (Arabidopsis thaliana)
[3] = target: T3, HA-BioID2-WIT1 (Arabidopsis thaliana)

Molecule	binding [1]	binding [2]	binding [3]
CDC48B	binds	binds	–
CDC48C	–	binds	–
B1	binds	binds	–
B2	–	–	binds
B3	–	–	binds
B4	–	–	binds
B5	–	–	binds
B6	–	binds	–
B7	–	binds	–

These are yes or no findings as the source states them, for the method shown. In cells and extracts the contact can be indirect. A yes stands for co-enrichment or nearness to the bait. Other partners may have been found. Tags and fused reporters may be left off the sequences shown.
